Values from PubChem BioAssay AID493246 (Drosophila RNAi Screening Center, 2011)
The screen tested about 21,000 reagents; this is an unselected part of those with a known target gene and a result. Of all reagents, 429 (2%) got an active call. 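Values are raw and not normalised between plates; calls rest on per-plate z-scores that were not deposited.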 Entries without a mark were called inactive. A plus sign joins genes that one reagent is predicted to hit. The record does not give: the amount of reagent, the time to read-out.

Test: 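Identify essential fly genes by loss of cell viability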 (primary screen)
Cells: Drosophila Kc and S2R+ cells
Knock-down reagent: long dsRNA against Drosophila genes
Detection: 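Cell number per well after knock-down, printed as raw plate values; calls were based on per-plate z-scores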
Direction: Kc cell number and S2R+ cell number: higher = more cells remaining
Call rule: 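Counted as a hit if cell number falls by a z-score of at least 3 within its plate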

no.	Target gene	dsRNA	Kc cell number, rep 1	Kc cell number, rep 2	S2R+ cell number, rep 1	S2R+ cell number, rep 2
1	CG5550	DRSC06943	1.55e6	1.55e6	1.11e6	1.22e6
2	CG30050	DRSC05342	1.44e6	1.62e6	1.04e6	1.21e6
3	dally	DRSC08954	1.36e6	1.45e6	1.12e6	1.28e6
4	dally	DRSC11338	1.22e6	1.25e6	1.27e6	1.15e6
5	CG8159	DRSC16392	1.38e6	1.48e6	1.25e6	1.34e6
6	CG6707	DRSC10697	1.26e6	1.28e6	1.29e6	1.37e6
7	CG3808	DRSC10377	1.64e6	1.78e6	1.33e6	1.49e6
8	CG18233	DRSC10308	1.40e6	1.54e6	1.33e6	1.41e6
9	CG6511	DRSC10656	1.36e6	1.39e6	1.12e6	1.21e6
10	HemK2 + Snapin	DRSC00736	1.27e6	1.32e6	6.13e5	5.57e5
11	HemK2 + Snapin	DRSC00737	1.61e6	1.63e6	1.18e6	1.34e6
12	Sh	DRSC19214	8.44e5 (active)	9.16e5	4.48e5	6.19e5
13	Sh	DRSC19220	1.29e6	1.59e6	1.18e6	1.23e6
14	Sh	DRSC19785	1.65e6	1.69e6	1.18e6	1.20e6
15	Sh	DRSC20055	1.50e6	1.51e6	1.02e6	1.13e6
16	CG6282	DRSC10616	1.44e6	1.54e6	1.25e6	1.12e6

No new results follow: entries from further up.
no.	Target gene	dsRNA	Kc cell number, rep 1	Kc cell number, rep 2	S2R+ cell number, rep 1	S2R+ cell number, rep 2
2	CG30050	DRSC05342	1.44e6	1.62e6	1.04e6	1.21e6
3	dally	DRSC08954	1.36e6	1.45e6	1.12e6	1.28e6
4	dally	DRSC11338	1.22e6	1.25e6	1.27e6	1.15e6
5	CG8159	DRSC16392	1.38e6	1.48e6	1.25e6	1.34e6
6	CG6707	DRSC10697	1.26e6	1.28e6	1.29e6	1.37e6

Next reagents follow:
no.	Target gene	dsRNA	Kc cell number, rep 1	Kc cell number, rep 2	S2R+ cell number, rep 1	S2R+ cell number, rep 2
17	CG5172	DRSC19936	1.93e6	1.94e6	1.14e6	1.33e6
18	CG4270	DRSC00648	1.53e6	1.56e6	1.11e6	1.21e6
19	mxc	DRSC17819	1.60e6	1.51e6	1.00e6	1.15e6
20	CG15605	DRSC06558	1.48e6	1.59e6	1.18e6	1.23e6
21	Sym	DRSC12301	1.53e6	1.65e6	1.20e6	1.30e6
22	RhoGDI	DRSC10919	1.53e6	1.62e6	1.21e6	1.25e6
23	Coq4 + Gorab + frc	DRSC10383	1.51e6	1.64e6	1.31e6	1.51e6
24	Uros1	DRSC18191	5.76e5		8.51e5	
25	Yeti	DRSC21138	1.50e6	1.52e6	9.74e5	1.04e6
26	CG13653	DRSC14653	1.47e6	1.46e6	1.01e6	1.12e6
27	ovo	DRSC18050	5.86e5		9.29e5	
28	ovo	DRSC18812	1.76e6	1.73e6	1.07e6	1.18e6
29	wdp	DRSC04367	1.25e6	1.32e6	1.10e6	1.08e6
30	Lrpprc2	DRSC18605	5.04e5		8.86e5	
31	CG6928	DRSC10749	1.36e6	1.37e6	1.27e6	1.26e6
32	CG44085	DRSC02922	8.55e5 (active)	9.85e5	4.57e5	5.86e5
33	nuf	DRSC11379	1.45e6	1.47e6	1.21e6	1.37e6
34	Ypel	DRSC17996	6.67e5		1.02e6	
35	CG6834	DRSC16125	1.63e6	1.67e6	1.25e6	1.34e6
36	Gpb5	DRSC21241	1.32e6	1.42e6	1.06e6	1.21e6
37	CG13841	DRSC14691	1.34e6	1.38e6	7.97e5	9.62e5
38	Coq8	DRSC19900	1.50e6	1.49e6	1.01e6	1.07e6
39	Vamp7	DRSC06599	1.83e6	1.76e6	1.36e6	1.61e6
40	S6kII	DRSC20645	1.51e6	1.52e6	1.07e6	1.22e6
